Experimental data reported in patent publication US6344505B1, “Mono- and bis-benzotriazolyldihydroxybiaryl UV absorbers” (Cytec Industries Inc., priority 1999, dated 2002).

Experiments:
[1] = Stabilization of polycarbonate plaques, Xenon Arc Weatherometer ASTM G-26, time to ΔYI = 5; settings: level 0.35 %; hours of exposure for an increase in 5 Yellowness Index units
[2] = Stabilization of polycarbonate plaques, Xenon Arc Weatherometer ASTM G-26, time to YI = 14; settings: level 0.35 %, 0.1% Mark 2112 phosphite; hours of exposure for Yellowness Index to reach 14 units
[3] = Stabilization of a multilayer polycarbonate article, xenon-arc weatherometer ASTM G-26; settings: level 7.0 (wt. %) in 2 mil polycarbonate film laminated on unstabilized plaque
[4] = Xenon weathering (SAE J1960 automotive exterior) of acrylic melamine coating; settings: UV absorber 2% on total resin solids
[5] = Stabilization of polypropylene films, Xenon Arc Weatherometer; settings: 0.5 % stabilizer in 0.5 mil polypropylene film

Structure (SMILES)	Time to ΔYI = 5 [1] [h]	Time to Y1 = 14 [2] [h]	Time to YI = 9 [3]	also measured
CC(C)(C)c1cc(-n2nc3ccc(Cl)cc3n2)c(O)c(C(C)(C)C)c1 [Eversorb ® 75, 2-(2H-6-Chlorobenzotriazol-2-yl)-4,6-di-tert-butylphenol]	1121	–	–	–
CC(C)(C)CC(C)(C)c1ccc(O)c(-n2nc3ccccc3n2)c1 [UV-5411, 2-(2H-benzotriazol-2-yl)-4-tert-octyl-phenol, reference compound]	1170	1592	>2500	–
CCC(C)(C)c1cc(-n2nc3ccccc3n2)c(O)c(C(C)(C)CC)c1 [Tinuvin ® 328, reference compound]	–	–	–	percent gloss retention ([4]; 999 hours exposure): 93%; percent gloss retention ([4]; 1995 hours exposure): 86%; percent gloss retention ([4]; 3900 hours exposure): 43%; percent gloss retention ([4]; 4383 hours exposure): 24%; percent gloss retention ([4]; 4838 hours exposure): 23%
CC(C)(C)CC(C)(C)c1cc(-c2cc(C(C)(C)CC(C)(C)C)cc(-n3nc4ccccc4n3)c2O)c(O)c(-n2nc3ccccc3n2)c1 [COMPOUND 1, 3,3′-bis-(2H-benzotriazol-2-yl)-5,5′-di-tert-octyl-1,1′-biphenyl-2,2′-diol]	1014	1435	1765	percent gloss retention ([4]; 999 hours exposure): 96%; percent gloss retention ([4]; 1995 hours exposure): 91%; percent gloss retention ([4]; 3900 hours exposure): 54%; percent gloss retention ([4]; 4383 hours exposure): 50%; percent gloss retention ([4]; 4838 hours exposure): 38%; Complete Loss of Physical Properties ([5]; cracking upon flexing): 1030 h; 0.5 Carbonyl Change ([5]; time for 0.5 change in carbonyl absorption at 1715 cm-1): 900 h
CC(C)(c1ccccc1)c1cc(-n2nc3ccccc3n2)c(O)c(C(C)(C)c2ccccc2)c1 [Tinuvin ®-234, 2-(2H-Benzotriazol-2yl)-4,6-bis (α,α-dimethylbenzyl) phenol]	1023	1420	–	–
Oc1c(-c2cccc(-n3nc4ccccc4n3)c2O)cccc1-n1nc2ccccc2n1 [COMPOUND 5, 3,3′-bis-(2H-benzotriazol-2-yl)-1,1′-biphenyl-2,2′-diol]	1271	1554	2205	–
CC(C)(C)CC(C)(C)c1cc(Cc2cc(C(C)(C)CC(C)(C)C)cc(-n3nc4ccccc4n3)c2O)c(O)c(-n2nc3ccccc3n2)c1 [MIXXIM BB/100®, 2,2′-methylenedi{6-(2-benzotriazolyl)-4-tert-octyl-phenol}, reference compound]	1015	–	–	–
CC(C)(C)CC(C)(C)c1cc(Cc2cc(C(C)(C)CC(C)(C)C)cc(-n3nc4ccccc4n3)c2O)c(O)c(-n2nc3ccccc3n2)c1 [LA-31 ®, 2,2′-Methylenedi [Bis-2-benzotriazolyl)-4-tert-octylphenol, reference compound]	–	1345	1510	–
Cc1cc(-c2cc(C)cc(-n3nc4ccccc4n3)c2O)c(O)c(-n2nc3ccccc3n2)c1 [COMPOUND 4, 3,3′-bis-(2H-benzotriazol-2-yl)-5,5′-di-methyl-1,1′-biphenyl-2,2′-diol]	–	1430	–	–
